Screening data

From PubChem BioAssay record AID1347123 (NCATS, 2019).

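Rh41 rhabdomyosarcoma cell line exposed to compounds for 48 h; luminescence from metabolically active cells is read to gauge viability and cell killing. The value is the fitted half-maximal potency (AC50) for cell killing; a lower number means a more potent compound. Calls come from the fitted curve class and score; inconclusive entries score from 1 to 39, covering weak, poorly fitted, partial or top-dose-only curves.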

Values are in µM. All entries here are filed as inconclusive. Only part of the assay is shown, chiefly results filed as inconclusive. A potency from a partial, single-point or poor curve is only a rough figure. Some entries filed as inconclusive have a full curve. Activity scores are not listed here.

CC(=O)SCC(Cc1ccccc1)C(=O)NCC(=O)OCc1ccccc1 (centres unmarked) read Potency 20.76 µM (cytotoxic, partial curve, poor fit).
CCCC(=O)O[C@]1(C(=O)COC(=O)CC)CC[C@H]2[C@@H]3CCC4=CC(=O)CC[C@]4(C)[C@H]3[C@@H](O)C[C@@]21C read Potency 3.23 µM (cytotoxic, full curve).
CCCOc1ccc2nc(NC(=O)OC)[nH]c2c1 read Potency 0.147 µM (cytotoxic, full curve, poor fit).
COc1cc([C@@H]2c3cc4c(cc3[C@H](O)[C@H]3COC(=O)[C@@H]23)OCO4)cc(OC)c1OC read Potency 0.7367 µM (cytotoxic, full curve).
O=C(NC1CC1)c1cccc(-c2ccc3c(NC(=O)C4CC4)n[nH]c3c2)c1 read Potency 4.649 µM (cytotoxic, full curve).
Nc1ccn([C@@H]2O[C@H](CO)[C@@H](O)[C@H]2O)c(=O)n1 read Potency 2.933 µM (cytotoxic, full curve).
O=C(Nc1cccc(Br)c1)c1cccc(S(=O)(=O)N2CCCCCC2)c1 read Potency 23.3 µM (cytotoxic, single point).
CC(=O)N1CCN(c2ccc(OCc3nn(C)c(C)c3-c3cccc4c(CCCOc5cc(C)c(Cl)c(C)c5)c(C(=O)O)n(Cc5cccnc5)c34)cc2)CC1 read Potency 26.14 µM (cytotoxic, partial curve, poor fit).
CC(=O)[C@@]1(O)CC[C@H]2[C@@H]3C[C@H](C)C4=CC(=O)C=C[C@]4(C)[C@@]3(F)[C@@H](O)C[C@@]21C read Potency 16.49 µM (cytotoxic, partial curve).
Clc1ccc(C(c2ccccc2Cl)C(Cl)Cl)cc1 (centres unmarked) read Potency 23.3 µM (cytotoxic, single point).
CC(S)C(=O)NCC(=O)O (centres unmarked) read Potency 2.614 µM (cytotoxic, full curve, poor fit).
CN(C)c1ccc(C2Nc3ccc4ccccc4c3C3=C2C(=O)CC(C)(C)C3)cc1Br (centres unmarked) read Potency 13.1 µM (cytotoxic, partial curve, poor fit).
Cc1ccc(C(=O)Oc2ccc(C(O)CNC(C)(C)C)cc2OC(=O)c2ccc(C)cc2)cc1 (centres unmarked) read Potency 4.649 µM (cytotoxic, full curve, poor fit).
NC1=N[C@@]2(c3cc(NC(=O)c4ccc(F)cn4)ccc3F)COC[C@@H]2CS1 read Potency 18.51 µM (cytotoxic, single point).
NC(=O)c1cccc2cn(-c3ccc([C@@H]4CCCNC4)cc3)nc12 read Potency 26.14 µM (cytotoxic, single point).
Cc1cc(C(=O)N2CCN(c3cccc(Cl)c3)CC2)n(-c2ccccc2)n1 read Potency 1.851 µM (cytotoxic, full curve).
CN[C@@H](C)C(=O)N[C@H]1CN(C(=O)CC(C)C)CC[C@H]2CC[C@@H](C(=O)NC(c3ccccc3)c3ccccc3)N2C1=O read Potency 23.3 µM (cytotoxic, single point).
Cc1cc(C2CCCCC2)n(O)c(=O)c1 read Potency 2.933 µM (cytotoxic, full curve).
CC(=O)O[C@]1(C(C)=O)CC[C@@H]2[C@@H]3C[C@H](C)C4=CC(=O)CC[C@]4(C)[C@H]3CC[C@@]21C read Potency 23.3 µM (cytotoxic, single point).
COC(=O)Nc1nc2ccc(C(=O)c3ccc(F)cc3)cc2[nH]1 read Potency 1.649 µM (cytotoxic, full curve, poor fit).
COc1cc([C@@H]2c3cc4c(cc3[C@H](O)[C@H]3COC(=O)[C@H]23)OCO4)cc(OC)c1OC read Potency 0.0369 µM (cytotoxic, full curve).
CC[C@H](NC(=O)[C@H](C)NC)C(=O)N1C[C@@H](O)C[C@H]1Cc1c(-c2[nH]c3cc(F)ccc3c2C[C@H]2C[C@H](O)CN2C(=O)[C@H](CC)NC(=O)[C@H](C)NC)[nH]c2cc(F)ccc12 read Potency 8.266 µM (cytotoxic, partial curve).
CC(C)C[C@H](NC(=O)[C@H](CCc1ccccc1)NC(=O)CN1CCOCC1)C(=O)N[C@@H](Cc1ccccc1)C(=O)N[C@@H](CC(C)C)C(=O)[C@@]1(C)CO1 read Potency 0.0147 µM (cytotoxic, full curve, poor fit).
N[C@@H](Cc1ccc(N(CCCl)CCCl)cc1)C(=O)O read Potency 23.3 µM (cytotoxic, single point).
CNC(=O)CN1CCC(Oc2cc3c(Nc4cccc(Cl)c4F)ncnc3cc2OC)CC1 read Potency 13.1 µM (cytotoxic, partial curve).
Cc1ccc2nc(N)[nH]c(=O)c2c1Sc1ccncc1 read Potency 36.92 µM (cytotoxic, single point).
CC[C@@]1(O)C(=O)OCc2c1cc1n(c2=O)Cc2cc3cc(O)ccc3nc2-1 read Potency 0.0369 µM (cytotoxic, full curve, poor fit).

The first 3 entries again:

| SMILES | Potency (µM) | remark |
|---|---|---|
| `CC(=O)SCC(Cc1ccccc1)C(=O)NCC(=O)OCc1ccccc1` (centres unmarked) | 20.76 | cytotoxic, partial curve, poor fit |
| `CCCC(=O)O[C@]1(C(=O)COC(=O)CC)CC[C@H]2[C@@H]3CCC4=CC(=O)CC[C@]4(C)[C@H]3[C@@H](O)C[C@@]21C` | 3.23 | cytotoxic, full curve |
| `CCCOc1ccc2nc(NC(=O)OC)[nH]c2c1` | 0.147 | cytotoxic, full curve, poor fit |